Test results published in patent US10952958B2, “Donezil pamoate, method of preparation and use thereof” (priority 2011, dated 2021).
Where a name gives a salt, the structure may show the parent alone. Read-outs that look alike come from different tables or passages of the source.

Assays:
[1] = for stability of the salt form: physicochemical characterization studies, comparison among donepezil pamoate salt forms
[2] = female rats, single intramuscular injection, 13.5 mg/kg (in donepezil), n=5, FIG. 11

| SMILES | solid form conversion (XRPD pattern) ([1]; following reformation of a slurry in water) | stability of the salt form [1] | donepezil plasma concentration profile (in vivo absorption) [2] | stability of the salt form ([1]; listed as donepezil pamoate salt (hydrated, 2:1 ratio)) |
| --- | --- | --- | --- | --- |
| COc1cc2c(cc1OC)C(=O)C(CC1CCN(Cc3ccccc3)CC1)C2.O=C(O)c1cc2ccccc2c(Cc2c(O)c(C(=O)O)cc3ccccc23)c1O [Example 5, donepezil pamoate] | converted to solids with the same XRPD pattern in FIG. 3 |  |  |  |
| COc1cc2c(cc1OC)C(=O)C(CC1CCN(Cc3ccccc3)CC1)C2.O=C(O)c1cc2ccccc2c(Cc2c(O)c(C(=O)O)cc3ccccc23)c1O [anhydrous form, donepezil pamoate] |  | not stable |  |  |
| COc1cc2c(cc1OC)C(=O)C(CC1CCN(Cc3ccccc3)CC1)C2 (stereo not drawn) [donepezil hydrochloride, reference compound] |  |  | rapidly absorbed and then eliminated |  |
| COc1cc2c(cc1OC)C(=O)C(CC1CCN(Cc3ccccc3)CC1)C2.O=C(O)c1cc2ccccc2c(Cc2c(O)c(C(=O)O)cc3ccccc23)c1O [donepezil pamoate (2:1), donepezil pamoate] |  | most stable form | sustained level of donepezil plasma concentrations was maintained | most stable salt |
